Assay [1] deals with BirA*-RAB18 (UniProt Q9NP72). The experiment in a line: proximity labelling.
The target in assay [2] is BirA*-RAB18 (UniProt Q9NP72). Description: proximity labelling. This is another data set of the same source.

Amino acid sequences for entries named in this document (tags omitted).
UniProt Q9NP72, whole entry: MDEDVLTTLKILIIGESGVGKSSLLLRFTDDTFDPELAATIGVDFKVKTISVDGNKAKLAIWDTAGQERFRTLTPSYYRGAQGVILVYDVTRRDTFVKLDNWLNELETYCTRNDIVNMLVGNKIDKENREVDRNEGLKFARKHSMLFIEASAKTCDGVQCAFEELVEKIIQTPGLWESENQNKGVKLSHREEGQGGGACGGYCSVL

Among the data in publication doi:10.1101/871517 are binding values, retold here.

Read-outs that look alike come from different tables or passages of the source. These are yes or no findings as the source states them, for the method shown. In cells and extracts the contact can be indirect. Here binding means that the protein was enriched with, or labelled near, the bait; the list need not be complete.

B1: STX18 (protein, UniProt Q9P2W9 1-335)
chain: MAVDITLLFRASVKTVKTRNKALGVAVGGGVDGSRDELFRRSPRPKGDFSSRAREVISHIGKLRDFLLEHRKDYINAYSHTMSEYGRMTDTERDQIDQDAQIFMRTCSEAIQQLRTEAHKEIHSQQVKEHRTAVLDFIEDYLKRVCKLYSEQRAIRVKRVVDKKRLSKLEPEPNTKTRESTSSEKVSQSPSKDSEENPATEERPEKILAETQPELGTWGDGKGEDELSPEEIQMFEQENQRLIGEMNSLFDEVRQIEGRVVEISRLQEIFTEKVLQQEAEIDSIHQLVVGATENIKEGNEDIREAIKNNAGFRVWILFFLVMCSFSLLFLDWYDS
On to B1, for which the binding entry in assay [1] and in assay [2] was “binds” throughout.
